These are yes or no findings as the source states them, for the method shown. For part of these data: In cells and extracts the contact can be indirect. Some binding calls cover weakened binding; strength is not graded here. Sequences can lack the tags named with a protein.
Assays:
[1] = target: T1, SEMA4B protein tagged with 3xFLAG at the C terminus (human) (UniProt Q9NPR2); assay: co-precipitation with Protein G-Sepharose; western blot
T1 sequence: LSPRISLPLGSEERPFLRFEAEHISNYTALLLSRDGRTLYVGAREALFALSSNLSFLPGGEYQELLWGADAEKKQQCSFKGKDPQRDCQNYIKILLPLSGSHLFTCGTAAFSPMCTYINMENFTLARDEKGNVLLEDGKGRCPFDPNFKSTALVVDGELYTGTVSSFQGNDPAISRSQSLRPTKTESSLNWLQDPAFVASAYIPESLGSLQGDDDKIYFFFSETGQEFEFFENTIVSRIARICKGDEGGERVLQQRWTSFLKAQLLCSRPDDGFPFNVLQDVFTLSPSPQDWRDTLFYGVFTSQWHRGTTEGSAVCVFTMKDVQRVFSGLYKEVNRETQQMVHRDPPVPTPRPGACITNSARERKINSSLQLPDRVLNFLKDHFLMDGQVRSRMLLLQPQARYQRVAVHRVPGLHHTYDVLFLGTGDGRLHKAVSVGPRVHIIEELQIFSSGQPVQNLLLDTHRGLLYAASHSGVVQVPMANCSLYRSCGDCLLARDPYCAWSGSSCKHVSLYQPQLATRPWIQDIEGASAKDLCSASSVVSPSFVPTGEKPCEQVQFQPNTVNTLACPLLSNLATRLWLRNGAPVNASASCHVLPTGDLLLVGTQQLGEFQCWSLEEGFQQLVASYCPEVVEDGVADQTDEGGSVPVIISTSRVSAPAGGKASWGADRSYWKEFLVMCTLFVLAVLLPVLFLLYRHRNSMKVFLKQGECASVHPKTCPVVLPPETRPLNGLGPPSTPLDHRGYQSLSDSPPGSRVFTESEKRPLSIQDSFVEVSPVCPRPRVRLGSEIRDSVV

[2] = target: T1, SEMA4B protein tagged with 3xFLAG at the C terminus (human); assay: co-precipitation with Protein G-Sepharose from extract of NCI-H358 expressing SEMA4B-3xFLAG; western with AS-2591 or anti-FLAG M2
[3] = target: T2, SEMA4B protein on the cell surface (SEMA4B/H358, NCI-H358, NCI-H2228 cells) (human) (UniProt Q9NPR2); assay: flow cytometry (FACScan) on NCI-H358 and SEMA4B/H358 cells, Alexa488 anti-human IgG
T2 sequence: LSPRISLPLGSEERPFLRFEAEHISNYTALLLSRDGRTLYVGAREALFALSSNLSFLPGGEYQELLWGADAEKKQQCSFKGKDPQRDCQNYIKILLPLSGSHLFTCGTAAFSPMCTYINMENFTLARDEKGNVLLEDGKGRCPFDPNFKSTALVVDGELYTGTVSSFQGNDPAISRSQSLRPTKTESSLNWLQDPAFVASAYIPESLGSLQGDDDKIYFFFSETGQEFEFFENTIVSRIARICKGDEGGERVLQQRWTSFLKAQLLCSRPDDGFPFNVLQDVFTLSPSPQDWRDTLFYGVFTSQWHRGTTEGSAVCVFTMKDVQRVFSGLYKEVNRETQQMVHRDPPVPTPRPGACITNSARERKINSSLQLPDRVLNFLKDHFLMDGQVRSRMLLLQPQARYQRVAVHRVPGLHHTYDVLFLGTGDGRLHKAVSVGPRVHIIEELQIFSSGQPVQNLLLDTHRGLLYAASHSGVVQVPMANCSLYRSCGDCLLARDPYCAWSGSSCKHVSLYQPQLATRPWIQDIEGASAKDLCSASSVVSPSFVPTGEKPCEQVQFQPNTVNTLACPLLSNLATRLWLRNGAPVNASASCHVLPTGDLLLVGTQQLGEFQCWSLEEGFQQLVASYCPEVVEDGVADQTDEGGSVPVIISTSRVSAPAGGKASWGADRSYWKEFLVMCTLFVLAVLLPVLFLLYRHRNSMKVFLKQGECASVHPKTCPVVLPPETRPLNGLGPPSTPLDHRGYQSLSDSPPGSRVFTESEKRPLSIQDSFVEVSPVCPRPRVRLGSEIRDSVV

Measured: binding

B1: recombinant Plexin B1/Fc fused protein (extracellular domain of Plexin B1 with the human Fc domain at the C terminus) (Fc fusion, not shown: a dimerising Fc or GST)
chain: LQPLPPTAFTPNGTYLQHLARDPTSGTLYLGATNFLFQLSPGLQLEATVSTGPVLDSRDCLPPVMPDECPQAQPTNNPNQLLLVSPGALVVCGSVHQGVCEQRRLGQLEQLLLRPERPGDTQYVAANDPAVSTVGLVAQGLAGEPLLFVGRGYTSRGVGGGIPPITTRALWPPDPQAAFSYEETAKLAVGRLSEYSHHFVSAFARGASAYFLFLRRDLQAQSRAFRAYVSRVCLRDQHYYSYVELPLACEGGRYGLIQAAAVATSREVAHGEVLFAAFSSAAPPTVGRPPSAAAGASGASALCAFPLDEVDRLANRTRDACYTREGRAEDGTEVAYIEYDVNSDCAQLPVDTLDAYPCGSDHTPSPMASRVPLEATPILEWPGIQLTAVAVTMEDGHTIAFLGDSQGQLHRVYLGPGSDGHPYSTQSIQQGSAVSRDLTFDGTFEHLYVMTQSTLLKVPVASCAQHLDCASCLAHRDPYCGWCVLLGRCSRRSECSRGQGPEQWLWSFQPELGCLQVAAMSPANISREETREVFLSVPDLPPLWPGESYSCHFGEHQSPALLTGSGVMCPSPDPSEAPVLPRGADYVSVSVELRFGAVVIAKTSLSFYDCVAVTELRPSAQCQACVSSRWGCNWCVWQHLCTHKASCDAGPMVASHQSPLVSPDPPARGGPSPSPPTAPKALATPAPDTLPVEPGAPSTATASDISPGASPSLLSPWGPWAGSGSISSPGSTGSPLHEEPSPPSPQNGPGTAVPAPTDFRPSATPEDLLASPLSPSEVAAVPPADPGPEALHPTVPLDLPPATVPATTFPGAMGSVKPALDWLTREGGELPEADEWTGGDAPAFSTSTLLSGDGDSAELEGPPAPLILPSSLDYQYDTPGLWELEEATLGASSCPCVESVQGSTLMPVHVEREIRLLGRNLHLFQDGPGDNECVMELEGLEVVVEARVECEPPPDTQCHVTCQQHQLSYEALQPELRVGLFLRRAGRLRVDSAEGLHVVLYDCSVGHGDCSRCQTAMPQYGCVWCEGERPRCVTREACGEAEAVATQCPAPLIHSVEPLTGPVDGGTRVTIRGSNLGQHVQDVLGMVTVAGVPCAVDAQEYEVSSSLVCITGASGEEVAGATAVEVPGRGRGVSEHDFAYQDPKVHSIFPARGPRAGGTRLTLNGSKLLTGRLEDIRVVVGDQPCHLLPEQQSEQLRCETSPRPTPATLPVAVWFGATERRLQRGQFKYTLDPNITSAGPTKSFLSGGREICVRGQNLDVVQTPRIRVTVVSRMLQPSQGLGRRRRVVPETACSLGPSCSSQQFEEPCHVNSSQLITCRTPALPGLPEDPWVRVEFILDNLVFDFATLNPTPFSYEADPTLQPLNPEDPTMPFRHKPGSVFSVEGENLDLAMSKEEVVAMIGDGPCVVKTLTRHHLYCEPPVEQPLPRHHALREAPDSLPEFTVQMGNLRFSLGHVQYDGES
binds: all assays above
